These are yes or no findings as the source states them, for the method shown. In cells and extracts the contact can be indirect. Here binding means that the protein was enriched with, or labelled near, the bait; the list need not be complete. Tags and fused reporters may be left off the sequences shown.

The assay has as its target T1, TM6SF2-3×FLAG-tobacco etch virus (TEV) cleavage site-2×Protein A fusion protein (mouse) (UniProt Q8R1J1).
T1 sequence: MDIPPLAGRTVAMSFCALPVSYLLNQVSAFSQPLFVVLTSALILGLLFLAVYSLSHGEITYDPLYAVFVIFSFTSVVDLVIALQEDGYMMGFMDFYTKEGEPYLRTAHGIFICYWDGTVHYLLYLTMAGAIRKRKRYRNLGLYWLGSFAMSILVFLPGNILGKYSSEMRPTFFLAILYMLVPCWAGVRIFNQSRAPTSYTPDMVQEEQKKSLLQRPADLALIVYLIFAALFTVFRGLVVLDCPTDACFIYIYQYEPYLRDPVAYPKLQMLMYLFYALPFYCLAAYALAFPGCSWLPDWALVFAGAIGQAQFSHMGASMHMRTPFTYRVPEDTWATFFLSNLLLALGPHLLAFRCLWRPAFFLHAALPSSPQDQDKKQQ
Nature of the assay: affinity purification with mass spectrometry; tandem affinity purification from CRL1601/TM6SF2-TAP stable cells lysed in PBS, 5 mM EDTA, 5 mM EGTA, 1% digitonin; IgG beads 4°C 2 h, TEV cleavage, anti-FLAG beads, elution with FLAG peptides; Orbitrap mass spectrometry.

B1: GPI transamidase component PIG-S (protein, UniProt Q5XI31 1-555)
chain: MATAGAAATDLEVVRGKRAALFFAAVAILLGLPLWWKTTETYRAPLPYSEISGLNALQLRLMVPVTVVFTRDSVPLDDQEKLPFTVVHEREIPLKYKMKIKCRFQKAYRRALEHEEEALSLGSVHEAEALLAEPEKQAEGSLTVYVISEHSSLLPQDMMSYIGPERTAIVRGMIHREAFNIIGRRIIHVAQAMSLTEDVLAAALADHLPEDKWSSDKRRPLKSSLGYEITFSLLNPDPKSHDVHWDIEEGVQRYVQPFLNRLSAAGNFSVDSQILYYAMLGVNPRFDPASSSYSLAMHSLPHVINPVESRLGSSAASLYPVLNFLLYVPELAHSPLYIQDKDGAPVATNAFHSPRWGGIMVYNVDPKIYNASELPVRVEVDMAQVMEVFLAQLRLLFGIAQPQVPPKCLLSGPKSEGLMTWELDRLLWARSVENLATATTTLTSLAQLLGKISNIVIKDDVASEVYRAVAAVQKAAEALALGHLSSAFAASQEAVTSSERAFFDPSLLHLLYFPDDQKFAIYIPLFLPMAVPILLSLVKIFLETHKSWKKPEKID
B1: the binding result is listed as “binds”.

B2: endogenous ERLIN2 of CRL1601 cells (protein, UniProt B5DEH2 1-339)
chain: MAQLGAVVAVASSFFCASLFSAVHKIEEGHIGVYYRGGALLTSTSGPGFHLMLPFITSYKSVQTTLQTDEVKNVPCGTSGGVMIYFDRIEVVNFLVPHAVYDIVKNYTADYDKALIFNKIHHELNQFCSVHTLQEVYIELFDQIDENLKLALQQDLTSMAPGLVIQAVRVTKPNIPEAIRRNYELMESEKTKLLIAAQKQKVVEKEAETERKKALIEAEKVAQVAEITYGQKVMEKETEKKISEIEDAAFLAREKAKADAECYTALKIAEANKLKLTPEYLQLMKYKAIASNSKIYFGKDIPNMFMDSAGGLGKQSEGLSDKLGFGLEDEPLETATKDN
On to B2, for which the binding entry is “binds”.

Values taken from PMC7462549.
